These results are taken from US5504240A, “Borane-hydroxydialkylsulfide borates” (Aldrich Chemical Company, Inc., priority 1995, dated 1996).

The structures appear in SMILES notation. Like-named read-outs stand apart in the source and are kept apart here.

The nature of one data set: odor. Particulars: hydroxysulfides.
The conditions of data set [1]: prior art; cited from earlier work.
Data set [2] in a line: exchange of borane with BH3.THF (complexing ability of borate esters), 11B NMR. In kind it is physicochemical. To be noted: BH3.THF and borate ester mixed at 3:1 molar ratio; THF in large excess, less quantitative.
A short description of data set [3]: exchange of borane with BMS (complexing ability of borate esters), 11B NMR. Particulars: BMS and borate ester mixed at 3:1 molar ratio, at equilibrium. In kind it is physicochemical.
A short description of data set [4]: hydroboration of 1-octene. To be noted: neat, room temperature.

Turning to `COCCSCCO` [H3 COCH2 CH2 SCH2 CH2 OH, 2-(2-methoxyethylthio)ethanol], the odor result in the data set “odor” was “mild”.

Consider `[BH3-][S+]1CCOCC1` [Borane-1,4-thioxane], for which, in data set [1], the odor result was “milder odor than dimethyl sulfide”.

For `CC(C)(C)SCCOCCOCCO` [t-BuSCH2 CH2 OCH2 CH2 OCH2 CH2 OH, 2-2-2-(tert-butylthio)ethoxy!ethoxy!ethanol], the odor result in the data set “odor” is recorded as “mild”.

For the compound `CC(C)(C)SCCOCCOCCOB(OCCOCCOCCSC(C)(C)C)OCCOCCOCCSC(C)(C)C` [8g, Tris 2-2-2-(tert-Butylthio)ethoxy!ethoxy!ethyl!borate], in data set [2], the “exchange, BH3.THF” value was determined as 68%.

Regarding `COCCSCCOB(OCCSCCOC)OCCSCCOC` [8i, Tris 2-(2-Methoxyethylthio)ethyl!borate], the “exchange, BH3.THF” value in data set [2] came to 62%. Besides, the “exchange, BMS” value in data set [3] stood at 0%.

Regarding `[BH3-][S+](CCOB(OCC[S+]([BH3-])C(C)(C)C)OCC[S+]([BH3-])C(C)(C)C)C(C)(C)C` (centres unmarked) [9a, Tris 2-(tert-Butylthio)ethyl!borate borane adduct (1:3)], the “HB of 1-octene” value in data set [4] is listed as 15 min.

In the case of `CCSCCOCCOB(OCCOCCSCC)OCCOCCSCC` [8c, Tris 2-2-(Ethylthio)ethoxy!ethyl!borate], the “exchange, BH3.THF” value in data set [2] is 83%. The “exchange, BMS” value in data set [3] stood at 28%.

Take `[BH3-][S+](CC)CCOCCOB(OCCOCC[S+]([BH3-])CC)OCCOCC[S+]([BH3-])CC` (centres unmarked) [9c, tris 2-2-(Ethylthio)ethoxy!ethyl!borate borane adduct (1:3)]: in data set [4], the “HB of 1-octene” value was 15 min.

For `[BH3-][S+](CCOB(OCC[S+]([BH3-])CCC(C)C)OCC[S+]([BH3-])CCC(C)C)CCC(C)C` (centres unmarked) [9b], the “HB of 1-octene” value in data set [4] is reported as 15 min.

Regarding `CSC` [dimethyl sulfide], the odor result in data set [1] is on record as “very noxious odor”.

With `[BH3-][S+](CC)CCOCCOCCOB(OCCOCCOCC[S+]([BH3-])CC)OCCOCCOCC[S+]([BH3-])CC` (centres unmarked) [9f, tris 2-2-2-(Ethylthio)ethoxy!ethoxy!ethyl!borate borane adduct (1:3)], in data set [4], the “HB of 1-octene” value amounted to 15 min.

Regarding `CC(C)(C)SCCO` [t-BuSCH2 CH2 OH, 2-(tert-butylthio)ethanol], in the data set “odor”, the odor result is reported as “mild”.

For the compound `[BH3-][S+](CCOCCOCCOB(OCCOCCOCC[S+]([BH3-])C(C)(C)C)OCCOCCOCC[S+]([BH3-])C(C)(C)C)C(C)(C)C` (centres unmarked) [9g, tris 2-2-2-(tert-Butylthio)ethoxy!ethoxy!ethyl!borate borane adduct (1:3)], in data set [4], the “HB of 1-octene” value came to 15 min.

Consider `CCSCCOCCO` [EtSCH2 CH2 OCH2 CH2 OH, 2-2-(ethylthio)ethoxy!ethanol], for which, in the data set “odor”, the odor entry is recorded as “very mild”.

Regarding `CC(C)(C)SCCOB(OCCSC(C)(C)C)OCCSC(C)(C)C` [8a, Tris 2-(tert-butylthio)ethyl!borate], the “exchange, BH3.THF” value in data set [2] was determined as 68%. In addition, the “exchange, BMS” value in data set [3] is 8%.

For the compound `CC(C)(C)SCCOCCOB(OCCOCCSC(C)(C)C)OCCOCCSC(C)(C)C` [8d, Tris 2-2-(tert-Butylthio)ethoxy!ethyl!borate], the “exchange, BH3.THF” value in data set [2] was 70%. Also, the “exchange, BMS” value in data set [3] turned out to be 11%.

Consider `CCSCCOCCOCCO` [Et--SCH2 CH2 OCH2 CH2 OCH2 CH2 OH, 2-2-2-(ethylthio)ethoxy!ethoxy!ethanol], for which the odor entry in “odor” is given as “very mild”.

In the case of `CC(C)CCSCCOCCOCCOB(OCCOCCOCCSCCC(C)C)OCCOCCOCCSCCC(C)C` [8h, Tris 2-2-2-(Isoamylthio)ethoxy!ethoxy!ethyl!borate], in data set [2], the “exchange, BH3.THF” value was determined as 66%.

As for `CC(C)(C)SCCOCCO` [t-BuSCH2 CH2 OCH2 CH2 OH, 2-2-(tert-butylthio)ethoxy!ethanol], the odor entry in “odor” is on record as “mild”.

Consider `[BH3-][S+](CCOCCOB(OCCOCC[S+]([BH3-])CCC(C)C)OCCOCC[S+]([BH3-])CCC(C)C)CCC(C)C` (centres unmarked) [9e, tris 2-2-(Isoamylthio)ethoxy!ethyl borate borane adduct (1:3)], for which the “HB of 1-octene” value in data set [4] came out at 15 min.

On to `[BH3-][S+](CCOCCOCCOB(OCCOCCOCC[S+]([BH3-])CCC(C)C)OCCOCCOCC[S+]([BH3-])CCC(C)C)CCC(C)C` (centres unmarked) [9h, tris 2-2-2-(Isoamylthio)ethoxy!ethoxy!ethyl!borate borane adduct (1:3)], for which, in data set [4], the “HB of 1-octene” value turned out to be 15 min.

Regarding `[BH3-][S+](CCOC)CCOB(OCC[S+]([BH3-])CCOC)OCC[S+]([BH3-])CCOC` (centres unmarked) [9i, tris 2-(2-Methoxyethylthio)ethyl!borate borane adduct (1:3)], in data set [4], the “HB of 1-octene” value was 15 min.

Take `[BH3-][S+](CCOCCOB(OCCOCC[S+]([BH3-])C(C)(C)C)OCCOCC[S+]([BH3-])C(C)(C)C)C(C)(C)C` (centres unmarked) [9d, tris 2-2-(tert-Butylthio)ethoxy!ethyl!borate borane adduct (1:3)]: in data set [4], the “HB of 1-octene” value stood at 15 min.

As to `CCSCCOCCOCCOB(OCCOCCOCCSCC)OCCOCCOCCSCC` [8f, Tris 2-2-2-(Ethylthio)ethoxy!ethoxy!ethyl borate], in data set [2], the “exchange, BH3.THF” value turned out to be 81%.

For the compound `CC(C)CCSCCOB(OCCSCCC(C)C)OCCSCCC(C)C` [8b, Tris 2-(Isoamylthio)ethyl!borate], the “exchange, BH3.THF” value in data set [2] worked out at 67%. Also, the “exchange, BMS” value in data set [3] is recorded as 0%.

As to `CC(C)CCSCCOCCOB(OCCOCCSCCC(C)C)OCCOCCSCCC(C)C` [8e, Tris 2-2-(Isoamylthio)ethoxy!ethyl!borate], in data set [2], the “exchange, BH3.THF” value was found to be 75%. In addition, in data set [3], the “exchange, BMS” value is listed as 0%.
